These are literature values, as cited in article PMC11324126, “Novel coumarin-6-sulfonamide-chalcone hybrids as glutathione transferase P1-1 inhibitors” (PLOS ONE, 2024).

Usually IC50 stands for the concentration that gives 50% inhibition.

Each structure is given as a SMILES string.

The subject of the data set is HepG2 cells. Set-up: method as in PMID 29944015. Particulars: read-out: IC50 towards HepG2 cells; cited from earlier work.

With `COc1cccc2c1C(=O)c1c(O)c3c(c(O)c1C2=O)C[C@@](O)(C(=O)CO)C[C@@H]3O[C@H]1C[C@H](N)[C@H](O)[C@H](C)O1` [doxorubicin], the half-maximal inhibitory concentration (IC50) is 5.43 ± 0.24 µM.
